PMC12527940, “Conformational plasticity of a BiP–GRP94 chaperone complex” (Nature Structural & Molecular Biology, 2025)
These are yes or no findings as the source states them, for the method shown. Some binding calls cover weakened binding; strength is not graded here.

Amino acid sequences for entries named in this document (tags omitted). A change or cut given only in a name is not applied to a line headed by its entry. Residues count along the entry.
UniProt P08113, residues 73-802: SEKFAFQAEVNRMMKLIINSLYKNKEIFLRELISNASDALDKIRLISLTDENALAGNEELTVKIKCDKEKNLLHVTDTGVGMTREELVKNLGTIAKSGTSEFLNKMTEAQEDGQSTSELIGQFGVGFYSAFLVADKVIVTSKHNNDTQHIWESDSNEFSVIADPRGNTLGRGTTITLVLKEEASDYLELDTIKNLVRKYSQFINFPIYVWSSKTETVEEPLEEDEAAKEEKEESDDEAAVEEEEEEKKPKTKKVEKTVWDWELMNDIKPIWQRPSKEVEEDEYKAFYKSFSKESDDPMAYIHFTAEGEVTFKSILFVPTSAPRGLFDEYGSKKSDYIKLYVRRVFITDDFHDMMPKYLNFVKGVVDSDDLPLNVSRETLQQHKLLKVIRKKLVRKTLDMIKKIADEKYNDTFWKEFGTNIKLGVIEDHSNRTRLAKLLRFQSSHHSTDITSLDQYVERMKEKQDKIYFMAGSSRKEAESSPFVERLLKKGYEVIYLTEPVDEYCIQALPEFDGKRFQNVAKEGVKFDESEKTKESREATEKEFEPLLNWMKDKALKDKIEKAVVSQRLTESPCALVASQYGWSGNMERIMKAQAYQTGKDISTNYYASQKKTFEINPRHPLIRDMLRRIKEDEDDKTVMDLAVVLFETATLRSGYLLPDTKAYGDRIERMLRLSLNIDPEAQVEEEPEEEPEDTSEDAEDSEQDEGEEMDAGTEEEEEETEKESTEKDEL

Biological target: GRP94 Δ72^noPT (UniProt P08113)
Experiment: cross-linking; XL-MS: DSBU crosslinking (4 µM each), high-molecular-weight SDS–PAGE bands digested and analysed by LC–MS/MS, 5% FDR on residue pairs; GRP94 Δ72^noPT samples with 100 µM PU-WS13; both purified

GRP94 Δ72^noPT (from UniProt P08113 73-802) (domain or fragment)
binding: binds
